Record: PubChem BioAssay AID1259425 (University of Nebraska Medical Center, 2018)

Purpose: 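Compare each knockdown with KSR1 silencing using changes in marker transcripts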 (primary screen)
System: HCT116 human colon cancer cells
Reagents: siRNA pool against human genes, 50 nM siRNA
Measured: 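After 50 nM siRNA pool, branched-DNA assay measures six marker transcripts per well, minus blank, normalised to the geometric mean of two housekeeping transcripts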
Reading the numbers: BNIP3L mRNA: higher = more BNIP3L transcript after knockdown
The whole screen tested about 14,000 reagents; below is a random part of them. Not all columns of the deposit are shown. Not stated in the record: the time to read-out.

PAH
- BNIP3L mRNA, set 1: 0.0604

HR
- BNIP3L mRNA, set 1: 0.0958

NUDT16L1
- BNIP3L mRNA, set 1: 0.135

POLQ
- BNIP3L mRNA, set 1: 0.118

PPP1R2
- BNIP3L mRNA, set 1: 0.132

EIF4G2
- BNIP3L mRNA, set 1: 0.201

DNAJC4
- BNIP3L mRNA, set 1: 0.13

CCDC134
- BNIP3L mRNA, set 1: 0.127

PHACTR2
- BNIP3L mRNA, set 1: 0.102

APH1A
- BNIP3L mRNA, set 1: 0.119

SUPT7L
- BNIP3L mRNA, set 1: 0.0806

TJP1
- BNIP3L mRNA, set 1: 0.069

Not a retest: an excerpt of the list.
EIF4G2
- BNIP3L mRNA, set 1: 0.201

DNAJC4
- BNIP3L mRNA, set 1: 0.13
